Experimental data as given in publication PMC4201148.
These are yes or no findings as the source states them, for the method shown. Binding seen in cells or lysates may run through a third protein. For some of these results: Tags and fused reporters may be left off the sequences shown.

How the values were obtained:
[1] = molecular target: T1, 6xHis-SpvC (Salmonella enterica subsp. enterica serovar Typhimurium strain 14028s) (UniProt P0A2M9); test: condition: 50 μg recombinant protein with 50 μg extract in 200 μl; pull-down; 50 μg purified recombinant 6xHis-SpvC or GST-SpvC incubated with 50 μg total Arabidopsis protein extract, with or without 80 μg BSA, 30 min, 200 μl, 21°C, with Ni- or GTH-beads; beads washed 3 times; immunoblot with anti-MPK6, anti-MPK3 or anti-MPK4; only the target purified
T1 sequence: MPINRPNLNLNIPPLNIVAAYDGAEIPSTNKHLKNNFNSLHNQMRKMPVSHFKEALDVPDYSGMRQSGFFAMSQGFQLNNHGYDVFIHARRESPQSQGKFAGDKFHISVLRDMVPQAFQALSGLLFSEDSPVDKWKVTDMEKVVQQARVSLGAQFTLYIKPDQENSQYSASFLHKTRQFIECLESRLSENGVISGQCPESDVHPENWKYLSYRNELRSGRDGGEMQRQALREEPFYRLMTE

[2] = molecular target: T2, GST-SpvC (Salmonella enterica subsp. enterica serovar Typhimurium strain 14028s) (UniProt P0A2M9); test: as above
T2 sequence: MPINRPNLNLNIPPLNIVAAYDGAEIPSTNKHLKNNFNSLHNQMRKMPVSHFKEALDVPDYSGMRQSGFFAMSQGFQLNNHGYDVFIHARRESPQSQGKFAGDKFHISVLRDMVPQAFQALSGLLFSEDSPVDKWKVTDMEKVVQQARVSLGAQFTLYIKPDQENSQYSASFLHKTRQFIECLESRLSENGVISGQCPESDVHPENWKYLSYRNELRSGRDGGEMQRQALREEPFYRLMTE

[3] = molecular target: T3, YFPc-SpvC (Salmonella enterica subsp. enterica serovar Typhimurium strain 14028s) (UniProt P0A2M9); test: split reporter; BiFC with YFPn and YFPc fusions co-expressed in Arabidopsis epidermal cells by particle bombardment together with p35S-mCherry; fluorescence observed 24-48 h after transformation by confocal microscopy; YFP-positive cells counted among mCherry-positive cells
T3 sequence: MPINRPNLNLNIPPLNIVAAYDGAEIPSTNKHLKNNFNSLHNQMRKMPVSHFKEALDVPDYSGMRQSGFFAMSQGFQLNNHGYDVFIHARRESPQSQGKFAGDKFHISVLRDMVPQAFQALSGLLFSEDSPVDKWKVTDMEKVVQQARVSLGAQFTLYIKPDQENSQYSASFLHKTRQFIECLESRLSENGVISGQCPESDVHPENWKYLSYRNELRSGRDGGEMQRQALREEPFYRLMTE

[4] = molecular target: T4, YFPn-SpvC (Salmonella enterica subsp. enterica serovar Typhimurium strain 14028s) (UniProt P0A2M9); test: as above
T4 sequence: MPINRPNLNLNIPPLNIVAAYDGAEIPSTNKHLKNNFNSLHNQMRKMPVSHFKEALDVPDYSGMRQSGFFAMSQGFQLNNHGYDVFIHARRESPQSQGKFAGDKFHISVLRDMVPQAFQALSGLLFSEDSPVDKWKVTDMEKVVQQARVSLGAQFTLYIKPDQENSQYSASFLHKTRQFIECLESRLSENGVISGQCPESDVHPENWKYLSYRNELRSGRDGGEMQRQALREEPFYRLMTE

B1: Arabidopsis MPK3 (enzyme, UniProt Q39023 1-370)
chain: MNTGGGQYTDFPAVETHGGQFISYDIFGSLFEITSKYRPPIIPIGRGAYGIVCSVLDTETNELVAMKKIANAFDNHMDAKRTLREIKLLRHLDHENIIAIRDVVPPPLRRQFSDVYISTELMDTDLHQIIRSNQSLSEEHCQYFLYQLLRGLKYIHSANIIHRDLKPSNLLLNANCDLKICDFGLARPTSENDFMTEYVVTRWYRAPELLLNSSDYTAAIDVWSVGCIFMELMNRKPLFPGKDHVHQMRLLTELLGTPTESDLGFTHNEDAKRYIRQLPNFPRQPLAKLFSHVNPMAIDLVDRMLTFDPNRRITVEQALNHQYLAKLHDPNDEPICQKPFSFEFEQQPLDEEQIKEMIYQEAIALNPTYG
- binding [1]: no binding
- binding [2]: no binding

B2: YFPn-MPK3 (enzyme, UniProt Q39023 1-370)
chain: MNTGGGQYTDFPAVETHGGQFISYDIFGSLFEITSKYRPPIIPIGRGAYGIVCSVLDTETNELVAMKKIANAFDNHMDAKRTLREIKLLRHLDHENIIAIRDVVPPPLRRQFSDVYISTELMDTDLHQIIRSNQSLSEEHCQYFLYQLLRGLKYIHSANIIHRDLKPSNLLLNANCDLKICDFGLARPTSENDFMTEYVVTRWYRAPELLLNSSDYTAAIDVWSVGCIFMELMNRKPLFPGKDHVHQMRLLTELLGTPTESDLGFTHNEDAKRYIRQLPNFPRQPLAKLFSHVNPMAIDLVDRMLTFDPNRRITVEQALNHQYLAKLHDPNDEPICQKPFSFEFEQQPLDEEQIKEMIYQEAIALNPTYG
- binding [3]: no binding

B3: YFPc-MPK3 (enzyme, UniProt Q39023 1-370)
chain: MNTGGGQYTDFPAVETHGGQFISYDIFGSLFEITSKYRPPIIPIGRGAYGIVCSVLDTETNELVAMKKIANAFDNHMDAKRTLREIKLLRHLDHENIIAIRDVVPPPLRRQFSDVYISTELMDTDLHQIIRSNQSLSEEHCQYFLYQLLRGLKYIHSANIIHRDLKPSNLLLNANCDLKICDFGLARPTSENDFMTEYVVTRWYRAPELLLNSSDYTAAIDVWSVGCIFMELMNRKPLFPGKDHVHQMRLLTELLGTPTESDLGFTHNEDAKRYIRQLPNFPRQPLAKLFSHVNPMAIDLVDRMLTFDPNRRITVEQALNHQYLAKLHDPNDEPICQKPFSFEFEQQPLDEEQIKEMIYQEAIALNPTYG
- binding [4]: no binding
